From PMC12073159, “Inhibition Mechanism of Mulberry Prenylated Flavonoids Sanggenone D/Kuwanon G Against α-Glucosidase and the Regulation of Glucose via GLUT4 Pathway” (Nutrients, 2025)

Assays:
α-glucosidase [1] = experiment: FT-IR measurement of secondary conformation (amide I band); settings: kuwanon G 100 μg/mL, sanggenone D 150 μg/mL; for β-antiparallel content of the α-glucosidase complex: free enzyme 9.53%; for β-sheet content of the α-glucosidase complex: free enzyme 20.96%; for α-helix content of the α-glucosidase complex: free enzyme 26.32%; for Peak position of the amide I band after adding compound: free enzyme 1656 cm^−1
α-glucosidase [2] = experiment: Fluorescence quenching spectroscopy (Stern–Volmer); type: binding
Procedure: A total of 100 μL of 1 U/mL α-glucosidase extract was mixed with […] of different concentrations (sanggenone D: 0, 1, 5, 10, 20, 50, 60 μg/mL; kuwanon G: 0, 1, 5, 10, 20, 40, 60 μg/mL) and incubated at three temperatures of 298 K, 304 K, and 310 K for 5 min. Then, the mixture were scanned with fluorescence spectroscopy (SpectraMax i3x, Molecular Devices, LLC., San Jose, CA, USA). The excitation wavelength was set at 280 nm, the emission wavelength was 300–500 nm, and the widths of both excitation and emission slits were 5 nm. The fluorescence quenching parameters were calculated according to the following equations.
Stern–Volmer dynamic collision quenching equation:(5) F0/F=1+KSVQ=1+Kqτ0Q (6) lgF0−F/F=lgKa+nlg[Q]
F0 and F represent the fluorescence intensity peaks of α-glucosidase without and with the compound, respectively; [Q] is the sample concentration; and τ0 is the protein’s average lifetime (10^−8 s).

Compound | β-antiparallel content of the α-glucosidase complex (α-glucosidase [1]) | β-sheet content of the α-glucosidase complex (α-glucosidase [1]) | α-helix content of the α-glucosidase complex (α-glucosidase [1]) | Peak position of the amide I band after adding compound (α-glucosidase [1]) | Quenching type of α-glucosidase fluorescence (α-glucosidase [2]) | n (number of binding sites) (α-glucosidase [2]; 298 K) | n (number of binding sites) (α-glucosidase [2]; 304 K) | n (number of binding sites) (α-glucosidase [2]; 310 K)
CC(C)=CCc1c(-c2ccc(O)cc2O)oc2c([C@H]3C=C(C)C[C@@H](c4ccc(O)cc4O)[C@@H]3C(=O)c3ccc(O)cc3O)c(O)cc(O)c2c1=O [kuwanon G] | 2.17% | 36.82% | 19.46% | 1637 cm⁻¹ | static quenching type | 0.96 | 1.15 | 1.43
CC(C)=CCC12Oc3cc(O)ccc3C1(O)Oc1cc(O)c(C3C=C(C)CC(c4ccc(O)cc4O)C3C(=O)c3ccc(O)cc3O)c(O)c1C2=O (stereo not shown) [sanggenone D] | 2.67% | 39.16% | 15.20% | 1639 cm⁻¹ | static quenching type | 0.81 | 0.93 | 1.22
